Article PMC11649929
These are yes or no findings as the source states them, for the method shown. For some assays here: Binding calls can cover weak binding; strength is not graded here. For some assays here: In cells and extracts the contact can be indirect. One block for each substance: values may come before it.

Chains of the proteins cited; added tags and fusions are not shown. Lines headed by an entry give the natural chain unless they say otherwise; changes in a name come on top.
UniProt P53994: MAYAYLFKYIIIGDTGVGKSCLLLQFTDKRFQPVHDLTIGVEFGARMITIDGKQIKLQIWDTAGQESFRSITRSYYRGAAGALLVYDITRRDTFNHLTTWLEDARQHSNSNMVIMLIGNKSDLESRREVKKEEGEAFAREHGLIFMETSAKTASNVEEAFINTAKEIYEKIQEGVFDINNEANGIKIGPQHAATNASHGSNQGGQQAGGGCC
UniProt Q8VCR2: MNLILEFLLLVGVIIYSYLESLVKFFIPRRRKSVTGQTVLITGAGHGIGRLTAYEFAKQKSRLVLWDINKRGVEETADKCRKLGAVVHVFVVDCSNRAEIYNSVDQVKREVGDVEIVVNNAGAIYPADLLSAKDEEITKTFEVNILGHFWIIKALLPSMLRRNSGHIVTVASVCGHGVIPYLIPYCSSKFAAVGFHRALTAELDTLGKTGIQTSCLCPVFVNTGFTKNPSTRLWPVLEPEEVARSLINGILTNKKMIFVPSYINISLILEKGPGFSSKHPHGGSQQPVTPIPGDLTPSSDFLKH

Experiments:
[1] = target: 3*Flag-Rab2A (Mouse) (mouse) (UniProt P53994); test: co-IP; HEK293T cells transfected with Flag-Rab2A and MYC-HSD17B13 plasmids, Flag-affinity beads pulldown
[2] = target: Flag-Rab2A, purified protein (mouse) (UniProt P53994); test: pull-down; in vitro binding assay with purified GST-HSD17B13 and Flag-Rab2A proteins; beads not told; both purified
[3] = target: Rab2A, wild type, expressed from a plasmid in HEK293T cells (tag not told) (mouse) (UniProt P53994); test: co-IP; HEK293T cells transfected with Rab2A plasmids with or without HSD17B13 plasmids, with or without A769662 (100 μM, 4 h, DMEM without FBS), EGFP-affinity beads pulldown
[4] = target: Rab2A, wild type, expressed from a plasmid in HEK293T cells (tag not told) (mouse) (UniProt P53994); test: co-IP; HEK293T cells transfected with 'relative plasmids', Western blotting; beads and tags not told
Rab2A (Δ032-042) (mouse) = Rab2A (Δ032-042) (mouse) (UniProt P53994); test: as above

binding [1]: binds
Substance: 5*MYC-HSD17B13 (Mouse) (from UniProt Q8VCR2)

binding [2]: binds
Substance: GST-HSD17B13 (Mouse), purified protein (from UniProt Q8VCR2)

binding [3]: binds
binding [4]: binds
binding (Rab2A (Δ032-042) (mouse)): no binding
Substance: HSD17B13 expressed from a plasmid in HEK293T cells (tag not told) (from UniProt Q8VCR2)
